Measured values taken from publication PMC8864472.
These are yes or no findings as the source states them, for the method shown. Binding seen in cells or lysates may run through a third protein. Some entries that bind do so weakly or less than the wild type. For some of these results: Sequences can lack the tags named with a protein.

Chains of the proteins cited; added tags and fusions are not shown. Residues count along the entry.
UniProt O15321, residues 28-606: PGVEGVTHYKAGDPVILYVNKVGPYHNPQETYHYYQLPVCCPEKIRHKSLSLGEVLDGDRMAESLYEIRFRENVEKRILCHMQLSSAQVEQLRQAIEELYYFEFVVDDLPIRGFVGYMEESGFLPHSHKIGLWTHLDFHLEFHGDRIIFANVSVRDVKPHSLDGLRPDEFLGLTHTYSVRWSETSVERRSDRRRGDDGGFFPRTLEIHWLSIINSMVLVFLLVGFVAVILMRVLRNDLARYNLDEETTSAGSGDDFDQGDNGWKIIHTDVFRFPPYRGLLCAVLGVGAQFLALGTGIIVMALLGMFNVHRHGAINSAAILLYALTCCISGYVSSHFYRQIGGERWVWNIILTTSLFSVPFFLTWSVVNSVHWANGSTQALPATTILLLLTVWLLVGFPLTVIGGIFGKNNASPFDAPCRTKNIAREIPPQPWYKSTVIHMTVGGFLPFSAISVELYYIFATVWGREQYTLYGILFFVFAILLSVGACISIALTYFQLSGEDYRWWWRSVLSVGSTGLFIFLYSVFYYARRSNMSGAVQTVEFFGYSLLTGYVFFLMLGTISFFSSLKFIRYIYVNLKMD

Assays:
Assay in all cases: pull-down; HEK293T cells transfected with constructs of both tagged proteins; pull-down with S protein beads; Western blot
PLD4 (human) = target: T1, PLD4 (human) (UniProt Q96BZ4)
T1 sequence: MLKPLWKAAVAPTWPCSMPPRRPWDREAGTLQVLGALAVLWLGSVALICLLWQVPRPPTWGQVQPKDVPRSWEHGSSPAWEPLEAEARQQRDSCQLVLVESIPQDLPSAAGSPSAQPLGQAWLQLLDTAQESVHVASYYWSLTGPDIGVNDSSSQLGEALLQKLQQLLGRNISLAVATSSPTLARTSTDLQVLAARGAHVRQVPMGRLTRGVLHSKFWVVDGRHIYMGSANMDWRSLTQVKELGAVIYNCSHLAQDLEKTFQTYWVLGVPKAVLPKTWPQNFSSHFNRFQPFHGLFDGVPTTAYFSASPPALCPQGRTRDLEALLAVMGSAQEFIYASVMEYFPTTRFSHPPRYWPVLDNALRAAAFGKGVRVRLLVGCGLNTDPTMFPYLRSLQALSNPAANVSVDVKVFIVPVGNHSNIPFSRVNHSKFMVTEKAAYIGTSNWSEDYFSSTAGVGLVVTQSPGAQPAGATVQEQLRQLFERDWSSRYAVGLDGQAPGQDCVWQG

PLD3 (human) = target: T2, PLD3 (human) (UniProt Q8IV08)
T2 sequence: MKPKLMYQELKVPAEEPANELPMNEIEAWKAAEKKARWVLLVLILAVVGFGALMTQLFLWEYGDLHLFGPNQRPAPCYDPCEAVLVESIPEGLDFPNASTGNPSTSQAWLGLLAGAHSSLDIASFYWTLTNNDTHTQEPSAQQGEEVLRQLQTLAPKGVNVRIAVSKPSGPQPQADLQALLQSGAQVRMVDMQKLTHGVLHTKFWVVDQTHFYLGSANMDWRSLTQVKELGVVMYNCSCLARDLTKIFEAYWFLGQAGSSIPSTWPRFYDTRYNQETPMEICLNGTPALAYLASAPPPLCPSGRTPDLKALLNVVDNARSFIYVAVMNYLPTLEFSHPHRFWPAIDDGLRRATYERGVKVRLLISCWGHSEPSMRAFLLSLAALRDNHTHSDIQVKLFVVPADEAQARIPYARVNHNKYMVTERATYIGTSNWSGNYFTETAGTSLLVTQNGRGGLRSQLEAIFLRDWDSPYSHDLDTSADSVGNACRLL

[1] = target: T3, SFB-tagged TM9SF3 (not stated (Human ORFeome V5.1 library or DNASU plasmid)) (UniProt Q9HD45)
T3 sequence: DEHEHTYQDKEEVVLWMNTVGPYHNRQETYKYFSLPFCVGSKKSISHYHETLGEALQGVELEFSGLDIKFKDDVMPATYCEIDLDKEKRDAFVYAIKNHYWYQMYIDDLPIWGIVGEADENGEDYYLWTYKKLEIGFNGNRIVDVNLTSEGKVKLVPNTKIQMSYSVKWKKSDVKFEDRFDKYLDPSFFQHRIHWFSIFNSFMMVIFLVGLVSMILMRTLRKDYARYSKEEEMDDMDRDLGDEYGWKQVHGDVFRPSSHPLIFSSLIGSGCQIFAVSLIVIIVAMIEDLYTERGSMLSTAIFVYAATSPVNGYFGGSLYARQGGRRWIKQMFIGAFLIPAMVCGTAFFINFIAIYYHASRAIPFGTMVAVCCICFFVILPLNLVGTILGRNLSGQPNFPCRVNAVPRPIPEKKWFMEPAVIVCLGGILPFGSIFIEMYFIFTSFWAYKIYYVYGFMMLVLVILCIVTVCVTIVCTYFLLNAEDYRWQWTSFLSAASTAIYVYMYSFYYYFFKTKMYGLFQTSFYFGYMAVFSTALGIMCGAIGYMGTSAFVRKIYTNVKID

[2] = target: SFB-tagged TM9SF1 (not stated (Human ORFeome V5.1 library or DNASU plasmid)) (UniProt O15321)
phospholipase D1 (human) = target: T4, phospholipase D1 (human) (UniProt Q13393)
T4 sequence: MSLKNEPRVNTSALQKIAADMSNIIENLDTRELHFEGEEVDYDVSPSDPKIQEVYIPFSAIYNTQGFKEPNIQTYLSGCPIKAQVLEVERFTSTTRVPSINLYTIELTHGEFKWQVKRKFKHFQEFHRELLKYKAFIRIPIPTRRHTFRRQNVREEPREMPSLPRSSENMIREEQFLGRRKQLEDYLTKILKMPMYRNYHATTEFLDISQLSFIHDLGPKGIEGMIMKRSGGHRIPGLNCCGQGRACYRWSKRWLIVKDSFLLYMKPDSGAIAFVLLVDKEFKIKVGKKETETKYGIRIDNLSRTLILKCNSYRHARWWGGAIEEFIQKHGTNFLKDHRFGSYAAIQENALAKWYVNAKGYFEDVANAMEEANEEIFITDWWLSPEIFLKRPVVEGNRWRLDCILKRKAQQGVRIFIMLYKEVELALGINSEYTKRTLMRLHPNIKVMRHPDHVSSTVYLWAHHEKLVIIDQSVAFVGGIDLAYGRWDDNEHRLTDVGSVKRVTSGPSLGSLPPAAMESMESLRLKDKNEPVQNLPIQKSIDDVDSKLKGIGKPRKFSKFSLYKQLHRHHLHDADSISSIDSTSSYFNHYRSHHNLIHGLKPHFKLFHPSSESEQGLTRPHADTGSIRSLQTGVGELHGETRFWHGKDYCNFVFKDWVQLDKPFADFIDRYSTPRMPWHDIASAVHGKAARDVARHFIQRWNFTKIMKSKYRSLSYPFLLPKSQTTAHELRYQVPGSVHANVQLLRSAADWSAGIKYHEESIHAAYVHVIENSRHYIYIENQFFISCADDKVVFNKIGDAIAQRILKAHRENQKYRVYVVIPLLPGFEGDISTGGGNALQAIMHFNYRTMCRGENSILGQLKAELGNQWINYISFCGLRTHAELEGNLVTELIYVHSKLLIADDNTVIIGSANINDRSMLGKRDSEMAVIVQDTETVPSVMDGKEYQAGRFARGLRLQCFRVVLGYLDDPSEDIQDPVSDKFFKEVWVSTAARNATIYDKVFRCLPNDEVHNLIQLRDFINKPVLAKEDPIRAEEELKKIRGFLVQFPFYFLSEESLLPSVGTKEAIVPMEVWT

| Binder | binding (PLD4 (human)) | binding (PLD3 (human)) | binding [1] | binding [2] | binding (phospholipase D1 (human)) |
| --- | --- | --- | --- | --- | --- |
| PLD4 (protein, UniProt Q96BZ4 1-506) MLKPLWKAAVAPTWPCSMPPRRPWDREAGTLQVLGALAVLWLGSVALICLLWQVPRPPTWGQVQPKDVPRSWEHGSSPAWEPLEAEARQQRDSCQLVLVESIPQDLPSAAGSPSAQPLGQAWLQLLDTAQESVHVASYYWSLTGPDIGVNDSSSQLGEALLQKLQQLLGRNISLAVATSSPTLARTSTDLQVLAARGAHVRQVPMGRLTRGVLHSKFWVVDGRHIYMGSANMDWRSLTQVKELGAVIYNCSHLAQDLEKTFQTYWVLGVPKAVLPKTWPQNFSSHFNRFQPFHGLFDGVPTTAYFSASPPALCPQGRTRDLEALLAVMGSAQEFIYASVMEYFPTTRFSHPPRYWPVLDNALRAAAFGKGVRVRLLVGCGLNTDPTMFPYLRSLQALSNPAANVSVDVKVFIVPVGNHSNIPFSRVNHSKFMVTEKAAYIGTSNWSEDYFSSTAGVGLVVTQSPGAQPAGATVQEQLRQLFERDWSSRYAVGLDGQAPGQDCVWQG | binds | binds |  |  |  |
| HA-tagged PLD4 (protein, UniProt Q96BZ4 1-506) MLKPLWKAAVAPTWPCSMPPRRPWDREAGTLQVLGALAVLWLGSVALICLLWQVPRPPTWGQVQPKDVPRSWEHGSSPAWEPLEAEARQQRDSCQLVLVESIPQDLPSAAGSPSAQPLGQAWLQLLDTAQESVHVASYYWSLTGPDIGVNDSSSQLGEALLQKLQQLLGRNISLAVATSSPTLARTSTDLQVLAARGAHVRQVPMGRLTRGVLHSKFWVVDGRHIYMGSANMDWRSLTQVKELGAVIYNCSHLAQDLEKTFQTYWVLGVPKAVLPKTWPQNFSSHFNRFQPFHGLFDGVPTTAYFSASPPALCPQGRTRDLEALLAVMGSAQEFIYASVMEYFPTTRFSHPPRYWPVLDNALRAAAFGKGVRVRLLVGCGLNTDPTMFPYLRSLQALSNPAANVSVDVKVFIVPVGNHSNIPFSRVNHSKFMVTEKAAYIGTSNWSEDYFSSTAGVGLVVTQSPGAQPAGATVQEQLRQLFERDWSSRYAVGLDGQAPGQDCVWQG |  |  | binds | binds |  |
| PJA2 (protein, UniProt O43164 1-708) MSQYTEKEPAAMDQESGKAVWPKPAGGYQTITGRRYGRRHAYVSFKPCMTRHERSLGRAGDDYEVLELDDVPKENSSGSSPLDQVDSSLPSEPIFEKSETEIPTCGSALNQTTESSQSFVAVHHSEEGRDTLGSSTNLHNHSEGEYIPGACSASSVQNGIALVHTDSYDPDGKHGEDNDHLQLSAEVVEGSRYQESLGNTVFELENREAEAYTGLSPPVPSFNCEVRDEFEELDSVPLVKSSAGDTEFVHQNSQEIQRSSQDEMVSTKQQNNTSQERQTEHSPEDAACGPGHICSEQNTNDREKNHGSSPEQVVRPKVRKLISSSQVDQETGFNRHEAKQRSVQRWREALEVEESGSDDLLIKCEEYDGEHDCMFLDPPYSRVITQRETENNQMTSESGATAGRQEVDNTFWNGCGDYYQLYDKDEDSSECSDGEWSASLPHRFSGTEKDQSSSDESWETLPGKDENEPELQSDSSGPEEENQELSLQEGEQTSLEEGEIPWLQYNEVNESSSDEGNEPANEFAQPAFMLDGNNNLEDDSSVSEDLDVDWSLFDGFADGLGVAEAISYVDPQFLTYMALEERLAQAMETALAHLESLAVDVEVANPPASKESIDGLPETLVLEDHTAIGQEQCCPICCSEYIKDDIATELPCHHFFHKPCVSIWLQKSGTCPVCRRHFPPAVIEASAAPSSEPDPDAPPSNDSIAEAP |  |  |  |  | binds |
| HA-tagged PLD3 (protein, UniProt Q8IV08 1-490) MKPKLMYQELKVPAEEPANELPMNEIEAWKAAEKKARWVLLVLILAVVGFGALMTQLFLWEYGDLHLFGPNQRPAPCYDPCEAVLVESIPEGLDFPNASTGNPSTSQAWLGLLAGAHSSLDIASFYWTLTNNDTHTQEPSAQQGEEVLRQLQTLAPKGVNVRIAVSKPSGPQPQADLQALLQSGAQVRMVDMQKLTHGVLHTKFWVVDQTHFYLGSANMDWRSLTQVKELGVVMYNCSCLARDLTKIFEAYWFLGQAGSSIPSTWPRFYDTRYNQETPMEICLNGTPALAYLASAPPPLCPSGRTPDLKALLNVVDNARSFIYVAVMNYLPTLEFSHPHRFWPAIDDGLRRATYERGVKVRLLISCWGHSEPSMRAFLLSLAALRDNHTHSDIQVKLFVVPADEAQARIPYARVNHNKYMVTERATYIGTSNWSGNYFTETAGTSLLVTQNGRGGLRSQLEAIFLRDWDSPYSHDLDTSADSVGNACRLL |  |  | binds | binds |  |
